In patent publication US20190092814A1, “Peptide” (priority 2017, published 2019):
Where two headings read alike, the source gives them in different places. At least one peptide structure holds a part that was inferred or is arguable (an end, a ring closure or a residue). Where no end group is shown, it is not given here.

Tests used:
[1] = system: MPO activity in lung; test: Lung myeloperoxidase (MPO) activity after HS; assay type: in vivo, rat; settings: HS-rats, 333 μg/kg×h, 4 h after HS
[2] = Tejada G Md et al (2015); cited from earlier work
[3] = system: Akt and eNOS; test: Immunoblot of Akt and eNOS activation in kidney and liver after HS; assay type: in vivo, rat; settings: HS-rats, high dose, vs HS+vehicle
[4] = system: serum IL-6, MCP-1, IL-10, CXCL1; test: Serum cytokines after HS (cytometric bead array); assay type: in vivo, rat; settings: HS-rats, 333 μg/kg×h, 4 h after HS
[5] = system: HS-rats; assay type: in vivo
Procedure: This study was carried out on 46 male Wistar rats (Charles River Ltd, Margate, UK) weighing 230-350 g receiving a standard diet and water ad libitum. Hemorrhagic shock and quantification of organ injury and dysfunction were performed as described previously in Sordi R et al (2017) Ann Surg, 265(2):408-417. Rats were anesthetized by sodium thiopentone (120 mg/kg i.p. for induction, followed by 10 mg/kg i.v. for maintenance). Cannulation of the trachea, femoral artery (for measuring blood pressure), and carotid arteries (for blood withdrawal), jugular vein (for drug administration), and bladder (for collecting urine) were performed. Blood (up to 1 mL/min) was withdrawn via the cannula inserted in the carotid artery in order to achieve a fall in mean arterial pressure (MAP) to 27 to 32 mmHg. Thereafter, MAP was maintained at this level for a period of 90 min either by further withdrawal of blood during the compensation phase or administration shed blood during the decompensation phase. At 90 min after initiation of hemorrhage (or when 25% of the shed blood had to be re-injected to sustain MAP at 27 to 32 mmHg), animals were resuscitated with the remaining shed blood (mixed with 100 IU/mL heparinized saline) (over a period of 5 min) plus a volume of Ringer's lactate identical to the volume of blood spent during decompensation. During the last 3 h of resuscitation, urine was obtained for the estimation of creatinine clearance. Then, blood samples were collected via the carotid artery for measurement of lactate (Accutrend Plus Meter, Roche Diagnostics, West Sussex, UK) and organ injury/dysfunction parameters. Under deep anesthesia, the heart was removed to terminate the experiment. Blood samples were centrifuged to separate serum, which was used for the determination of urea, creatinine, aspartate aminotransferase (AST), alanine aminotransferase (ALT), lipase, amylase and creatine kinase (CK) by an external contract research facility (IDEXX Laboratories Ltd, West Yorkshire, UK) in a blinded fashion. In addition, lung, kidney and liver samples were taken and stored at −80° C. for further analysis. Sham-operated rats were used as control and underwent identical surgical procedures, but without hemorrhage or resuscitation. Blood pressures during the experiment were measured by Powerlab®, and recorded and analyzed by Labchart® (AD instruments Ltd, Dunedin, New Zealand).
The following groups were studied: Sham+vehicle (n=11), sham+Pep19-4LF (n=6), HS+vehicle (n=12), HS+Pep19-4LF-LD (n=8), HS+Pep19-4LF-HD (n=8), HS+Pep19-2.5-HD (n=8). Rats were administered vehicle (saline 1.5 ml/kg/h) or Pep19-4LF (low dose (LD)=66 μg/kg×h; high dose (HD)=333 μg/kg×h) or Pep19-2.5 (high dose (HD)=333 μg/kg×h) continuously for 4 h after resuscitation using infusion pump for rodents (PHD2000, 70-2000; Harvard apparatus Massachusetts, U.S). 11 rats were excluded from data analysis due to surgical/technical issues (n=5) prior to onset of HS and death during resuscitation (n=6). The doses of Pep19-4LF and Pep19-2.5 used in this study were based on efficacy seen in previous in vitro and in vivo studies (Schuerholz T et al (2013) Crit Care, 17(1):R3; Tejada G Md et al (2015) Sci Rep, 5:14292; Martin L et al (2015) PLoS One, 10(5):e0127584; Martin L et al (2015) PLoS One, 10(11):e0143583).

[6] = system: CD68-positive cells in lung; test: Lung macrophage recruitment after HS (CD68 immunohistochemistry); assay type: in vivo, rat; settings: HS-rats, 333 μg/kg×h, 4 h after HS
[7] = system: NF-κB pathway (IKKα/β, IκBα, p65); test: Immunoblot of NF-κB activation in kidney and liver after HS; assay type: in vivo, rat; settings: HS-rats, high dose i.v., Western blot
[8] = Isothermal titration calorimetry of peptide binding to heparan sulfate; settings: ITC, 37° C., 1-4 mM peptide into 200 μg/ml heparan sulfate, 20 mM HEPES pH 7.0
[9] = system: human peripheral blood mononuclear cells; test: Heparan sulfate-induced TNFα secretion in human mononuclear cells; assay type: cell-based; settings: heparan sulfate and peptide pre-incubated 30 min, cells incubated 4 h, ELISA
[10] = high dose 333 μg/kg×h i.v., 4 h after HS, vs vehicle

GKKYRRFRWKFKGKLFLFG-NH2 [Pep19-4LF, GKKYRRFRWKFKGKLFLFG]
neutrophil activation (MPO activity) in the lung caused by HS [1]: significantly attenuated
effects of LPS and lipoproteins [2]: neutralize
decline in Akt phosphorylation on Ser473 [3]: attenuated the decline
decline in eNOS phosphorylation on Ser1177 [3]: attenuated the decline
increase in serum CXCL1 caused by HS [4]: abolished
increase in serum IL-6 caused by HS [4]: abolished
increase in serum IL-10 caused by HS [4]: abolished
increase in serum MCP-1 caused by HS [4]: abolished
liver injury caused by HS [5]: significantly attenuated
pancreatic injury caused by HS [5]: significantly attenuated
renal dysfunction caused by HS [5]: significantly attenuated
decline in MAP during the resuscitation period ([5]; high dose 333 μg/kg×h i.v. continuously for 4 h after resuscitation, vs HS+vehicle): significantly attenuated
organ injury and dysfunction caused by HS [5, 10]: significantly attenuated
rise in lactate caused by HS [5, 10]: significantly attenuated
creatinine clearance change caused by HS ([5]; low dose 66 μg/kg×h): did not attenuate
increase in ALT caused by HS ([5]; low dose 66 μg/kg×h): attenuated
increase in AST caused by HS ([5]; low dose 66 μg/kg×h): did not attenuate
increase in amylase caused by HS ([5]; low dose 66 μg/kg×h): attenuated
increase in lactate caused by HS ([5]; low dose 66 μg/kg×h): did not attenuate
increase in lipase caused by HS ([5]; low dose 66 μg/kg×h): attenuated
increase in serum creatinine caused by HS ([5]; low dose 66 μg/kg×h): attenuated
increase in urea caused by HS ([5]; low dose 66 μg/kg×h): did not attenuate
decline in MAP during the resuscitation period ([5]; low dose 66 μg/kg×h i.v. continuously for 4 h after resuscitation): had no effect
recruitment of macrophages (CD68-positive cells) into the lung caused by HS [6]: significantly attenuated
nuclear translocation of the NF-κB subunit p65 [7]: attenuated
phosphorylation of IKKα/β on Ser176/180 [7]: attenuated
phosphorylation of IκBα on Ser32/36 [7]: attenuated
binding of peptide to heparan sulfate (enthalpy change) [8]: exothermic reaction between the two reactants, running into a saturation of binding at higher mass ratios
heparan sulfate-stimulated release of TNFα from human MNCs [9]: reduced/abolished in a concentration-dependent manner
